{"source": "PubChem BioAssay AID1347423", "about": "(Functional Genomics Laboratory (NCATS/FGL), 2020)", "note": "About 210 (0.4%) of roughly 52,000 sequences were called active.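 Rule for the calls: active = gene whose silencing raises cell survival under the drug, median off-target-corrected z-score across its silencing RNAs 2 or more; inactive = the rest.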 The list shows a part of the results.", "data": [{"assay": "Resistance to Poly (ADP-Ribose) Polymerase inhibitor: Gene Identification via Genome-wide siRNA Screen", "details": "mouse BRCA2 R2336H ES cells, olaparib, CellTiter-Glo viability; active compounds read high", "summary_of_the_method": "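Genome-wide siRNA screen (3 siRNAs/gene, 20 nM) in mouse ES cells carrying hypomorphic BRCA2 R2336H; olaparib 500 nM added 48 h post-transfection, CellTiter-Glo viability 72 h later. Normalized to plate-median negative control; MAD z-scores, gene median, seed-adjusted.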", "values": [{"sequence": "GGAGGUGGGUUUAUUAUACTT against Rab3b", "z-score": "inactive: 0.346"}, {"sequence": "GGUUGUUCUUAACAUAACCTT against BC013529", "z-score": "inactive: 1.29"}, {"sequence": "GGGAGACUGUGAAGCUUUATT against Elk4", "z-score": "inactive: -0.855"}, {"sequence": "CCUUCAGAUUUCAGCUGAATT against Prkcb1", "z-score": "inactive: 0.572"}, {"sequence": "GGAAGGUACAGGAAUCUCUTT against Arl6", "z-score": "inactive: -0.999"}, {"sequence": "GGAAGAAAAAUUGAAACACTT against Palmd", "z-score": "inactive: -0.337"}, {"sequence": "CCCAUGGCAAGUCCACACUTT against Phf2", "z-score": "inactive: -0.285"}, {"sequence": "CCAGCAUUCACCUGACAAATT against Kif24", "z-score": "inactive: -0.443"}, {"sequence": "GGCUUGAAUCACCAACCAGTT against Sgcz", "z-score": "inactive: -0.319"}, {"sequence": "CGUGGGAUCGAAUACAUAUTT against Iapp", "z-score": "inactive: -1.89"}, {"sequence": "GGAGAGACUGUGAAUACAUTT against Ly96", "z-score": "inactive: -0.222"}, {"sequence": "GGCUAAGGGUAACGUGCUGTT against Bri3", "z-score": "inactive: -0.47"}, {"sequence": "CCUAAACGAGGCCUUCGACTT against Ferd3l", "z-score": "inactive: 0.281"}, {"sequence": "CCAUCUAACCAAAUUCUGGTT against Agpat1", "z-score": "inactive: 0.752"}, {"sequence": "GGAGAGGAGGUGGAAAAACTT against Rab11fip4", "z-score": "inactive: 0.274"}, {"sequence": "GGUCAUGAGUGAAUAAUGATT against Arih1", "z-score": "inactive: -1.22"}, {"sequence": "GCCACAACAACUUGAGCAGTT against Amigo", "z-score": "inactive: 2.05"}, {"sequence": "GGAAGAAAACACCAUUUUUTT against Irf6", "z-score": "inactive: 1.7"}, {"sequence": "GGGAAAAGAAUCAAAAGUATT against 4932423M01Rik", "z-score": "inactive: 0.949"}, {"sequence": "CGCAAGGAAAUGCUUGACCTT against Elmo3", "z-score": "inactive: -0.639"}, {"sequence": "GGAUACUUUAUGGUAUUUCTT against 9130023H24Rik", "z-score": "inactive: 1.57"}, {"sequence": "GUGAGAAAUUCAAUCUUGGTT against Gstm3", "z-score": "inactive: 0.453"}, {"sequence": "GGGUUUGUUGUCAUUCCUCTT against Hiat1", "z-score": "inactive: 0.547"}, {"sequence": "GGUCUUGAUGGUAGAGAGCTT against Strc", "z-score": "inactive: -0.63"}, {"sequence": "CCCUACAUAUAUCAAGAUUTT against Ephb6", "z-score": "inactive: 0.536"}, {"sequence": "GGCCUUUACAUCAAUAUCATT against 9630041N07", "z-score": "inactive: -0.111"}, {"sequence": "GGUGAUGAUUUAAGAAUCCTT against Sez6", "z-score": "inactive: 0.41"}, {"sequence": "GGAUGGAGAAGAUUUAAUGTT against Cul1", "z-score": "inactive: -0.303"}, {"sequence": "CCUCUCUGACUGGUUGAAGTT against Olfr345", "z-score": "inactive: -1.23"}, {"sequence": "GGGUAAACUCAGGCACCUCTT against 9430098E02Rik", "z-score": "inactive: -0.117"}, {"sequence": "GGCUGGUUUACAACAGAACTT against Lypla3", "z-score": "inactive: 0.372"}, {"sequence": "GGACUCUCACCAAUAAAAGTT against Zadh2", "z-score": "inactive: -0.421"}, {"sequence": "GCUUGAUAUAGUAUCCUUUTT against 1110021E09Rik", "z-score": "inactive: -0.39"}, {"sequence": "GGAAAAAGAGGCCUCAAAGTT against BB049667", "z-score": "inactive: -0.0899"}, {"sequence": "GGGAGUCGUAUUUAUAUUCTT against Itga5", "z-score": "inactive: 0.181"}, {"sequence": "GGUACACAACCAUCCUUGATT against Olfr600", "z-score": "inactive: -0.543"}, {"sequence": "CCCAUAUGAGCUGAAAGCUTT against Il1b", "z-score": "inactive: 0.0824"}, {"sequence": "GGCAUAGUGAAUUUAGUCUTT against 4932408B21Rik", "z-score": "inactive: 0.868"}, {"sequence": "CGAAUAGGAUUUCGACCUGTT against E330023O18", "z-score": "inactive: -0.619"}, {"sequence": "GGUUACCUCAGUUUAAAGATT against AW049900", "z-score": "inactive: 0.039"}, {"sequence": "CCCUAGCUUUCUUCGAUGUTT against BC061194", "z-score": "inactive: 0.107"}, {"sequence": "GAUCAAAAGCCUUCAACACTT against Olfr910", "z-score": "inactive: -0.877"}, {"sequence": "GGAAGGAUUUAUCUUAGUUTT against C4bp", "z-score": "inactive: -1.49"}, {"sequence": "CCUGGUGAAACGUGUAUGATT against D730048I06Rik", "z-score": "inactive: 1.27"}, {"sequence": "GGAUCCUAAACACUUCAAGTT against Pitpnc1", "z-score": "inactive: -0.451"}, {"sequence": "GGCAUUGGAUCUUCAUUUUTT against Slc18a1", "z-score": "inactive: -0.0515"}, {"sequence": "GGGACAAGGCCUCGAUAUUTT against Ggps1", "z-score": "inactive: -1"}, {"sequence": "GGAUUUUCAAUGCUGUAUGTT against Prkag2", "z-score": "inactive: 1.31"}, {"sequence": "GAUUGGAGUGAAGAAACGUTT against Fkbp2", "z-score": "inactive: -0.257"}, {"sequence": "GCGCGAGCAUUACAUAACUTT against C330001K17Rik", "z-score": "inactive: 1.29"}, {"sequence": "GCUUGUUAACCGACUAUAUTT against Fez2", "z-score": "inactive: 0.234"}, {"sequence": "GGCUAGCAGGAUCAGCAUCTT against F830003B07", "z-score": "inactive: -0.613"}, {"sequence": "GGCCCAAUCUCAAGAGGAUTT against Tnfaip8l3", "z-score": "inactive: 0.25"}, {"sequence": "GGUCACUCUAUGAGGAUUUTT against Vhlh", "z-score": "inactive: 1.09"}, {"sequence": "GGUUUGGAUGUGAAACAAGTT against Ttid", "z-score": "inactive: 0.782"}, {"sequence": "GGAUUUCCGUUGUCACUAATT against Krt1-4", "z-score": "inactive: 2.21"}, {"sequence": "GGAAGAAGCCACAAUCAACTT against 1110032A03Rik", "z-score": "inactive: 0.981"}, {"sequence": "GGGUAUGCAGAAGGGAACATT against Nrap", "z-score": "inactive: -1.22"}, {"sequence": "CCACUUUGACAGGAGGAAGTT against Actn2", "z-score": "inactive: 0.628"}, {"sequence": "GCUUGCACAAGAUGCUAUATT against B630005N14Rik", "z-score": "inactive: -0.837"}, {"sequence": "GGGUGCAUAAGCAAGCUGUTT against Nkiras2", "z-score": "inactive: -0.781"}, {"sequence": "CGACCACAGCAUAUAUGUUTT against Mapkbp1", "z-score": "inactive: -0.605"}, {"sequence": "GGAUUUGUCAUCCACUUCUTT against Sez6", "z-score": "inactive: -1.18"}, {"sequence": "GCUAAACAGACAACUCAACTT against Rufy2", "z-score": "inactive: 0.416"}, {"sequence": "GGAGCUAACUAACGAGAUGTT against T", "z-score": "inactive: 0.0643"}, {"sequence": "GCAAUUAUAACUUAGAAGGTT against BC022146", "z-score": "inactive: -0.4"}, {"sequence": "CCUAAAAGCUCAUAGAUUCTT against Cidec", "z-score": "inactive: 0.471"}]}]}
